PubChem BioAssay AID1224830 – NIAID, 2016
The deposit covers about 18,000 reagents; below is a part drawn at random. About 2,900 of all reagents (16%) were called active. 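Calls are made per well; low scores hint the gene aids the LPS response, high scores that it dampens it.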 Repeated entries: four replicate wells of each siRNA pool.

- Test: 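Regulators of TLR4 signalling towards TNF-alpha in macrophage-like cells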 (primary screen)
- System: human THP-1 monocytic leukaemia cells, TNF dual-luciferase reporter clone, PMA-differentiated to macrophage-like cells
- Reagents: siRNA pool against human genes, 50 nM
- Time to read-out: LPS for 4 h, given about 3 days after siRNA transfection
- Conditions: bacterial LPS (TLR4 ligand), 10 ng/ml
- Detection: 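TNF firefly reporter luminescence divided by renilla, normalised to the plate median, then turned into a robust z-score for each replicate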
- Direction: TNF reporter robust z-score: higher = stronger TNF reporter response to LPS
- Rule for the call: 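a well is active when its z-score exceeds 2.8 or falls below -1.5; control wells carry no call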

gene | TNF reporter robust z-score | Outcome
OR4D10 (GeneID 390197) | 2.14 | inactive
OR4D10 (GeneID 390197) | 2.71 | inactive
OR4D10 (GeneID 390197) | -0.09 | inactive
OR4D10 (GeneID 390197) | -0.75 | inactive
RPS12 (GeneID 6206) | 0.99 | inactive
RPS12 (GeneID 6206) | 1.42 | inactive
RPS12 (GeneID 6206) | 2.07 | inactive
RPS12 (GeneID 6206) | 0.88 | inactive
TAS2R4 (GeneID 50832) | -1.12 | inactive
TAS2R4 (GeneID 50832) | -0.7 | inactive
TAS2R4 (GeneID 50832) | -0.64 | inactive
TAS2R4 (GeneID 50832) | -0.3 | inactive
MMP19 (GeneID 4327) | 0.75 | inactive
MMP19 (GeneID 4327) | 1.47 | inactive
MMP19 (GeneID 4327) | 1.52 | inactive
MMP19 (GeneID 4327) | 3.63 | active
MSH4 (GeneID 4438) | -0.76 | inactive
MSH4 (GeneID 4438) | -0.58 | inactive
MSH4 (GeneID 4438) | -0.97 | inactive
MSH4 (GeneID 4438) | -0.62 | inactive
HDAC6 (GeneID 10013) | 1.84 | inactive
HDAC6 (GeneID 10013) | 1.85 | inactive
HDAC6 (GeneID 10013) | 1.69 | inactive
HDAC6 (GeneID 10013) | -0.36 | inactive
XIRP1 (GeneID 165904) | -0.22 | inactive
XIRP1 (GeneID 165904) | 0.23 | inactive
XIRP1 (GeneID 165904) | 0.04 | inactive
XIRP1 (GeneID 165904) | 0.09 | inactive
TBC1D10B (GeneID 26000) | 0.53 | inactive
TBC1D10B (GeneID 26000) | 0.58 | inactive
TBC1D10B (GeneID 26000) | 0.96 | inactive
TBC1D10B (GeneID 26000) | 0.69 | inactive
POU3F3 (GeneID 5455) | -0.61 | inactive
POU3F3 (GeneID 5455) | -0.79 | inactive
POU3F3 (GeneID 5455) | 0.12 | inactive
POU3F3 (GeneID 5455) | -0.5 | inactive
CNTN2 (GeneID 6900) | -1.25 | inactive
CNTN2 (GeneID 6900) | -1.51 | active
CNTN2 (GeneID 6900) | -1.22 | inactive
CNTN2 (GeneID 6900) | -1.32 | inactive
GGCX (GeneID 2677) | 2.03 | inactive
GGCX (GeneID 2677) | 2.93 | active
GGCX (GeneID 2677) | 0.29 | inactive
GGCX (GeneID 2677) | 2.13 | inactive
NLGN4X (GeneID 57502) | 2.79 | inactive
NLGN4X (GeneID 57502) | 2.85 | active
NLGN4X (GeneID 57502) | 3.49 | active
NLGN4X (GeneID 57502) | 2.76 | inactive
TRMT61A (GeneID 115708) | -0.16 | inactive
TRMT61A (GeneID 115708) | 0.07 | inactive
TRMT61A (GeneID 115708) | -0.65 | inactive
TRMT61A (GeneID 115708) | -0.33 | inactive
ANGPT1 (GeneID 284) | 0.09 | inactive
ANGPT1 (GeneID 284) | 1.04 | inactive
ANGPT1 (GeneID 284) | 0.45 | inactive
ANGPT1 (GeneID 284) | 1.03 | inactive
HCLS1 (GeneID 3059) | -0.92 | inactive
HCLS1 (GeneID 3059) | -0.43 | inactive
HCLS1 (GeneID 3059) | -1.32 | inactive
HCLS1 (GeneID 3059) | -1.73 | active

Quoted from above, 6 entries:
gene | TNF reporter robust z-score | Outcome
NLGN4X (GeneID 57502) | 2.85 | active
NLGN4X (GeneID 57502) | 3.49 | active
NLGN4X (GeneID 57502) | 2.76 | inactive
TRMT61A (GeneID 115708) | -0.16 | inactive
TRMT61A (GeneID 115708) | 0.07 | inactive
TRMT61A (GeneID 115708) | -0.65 | inactive

The list goes on.
gene | TNF reporter robust z-score | Outcome
ANPEP (GeneID 290) | 0.12 | inactive
ANPEP (GeneID 290) | -0.62 | inactive
ANPEP (GeneID 290) | 0.19 | inactive
ANPEP (GeneID 290) | 0.35 | inactive
SAMD9L (GeneID 219285) | -0.61 | inactive
SAMD9L (GeneID 219285) | 1.77 | inactive
SAMD9L (GeneID 219285) | -0.32 | inactive
SAMD9L (GeneID 219285) | 0.94 | inactive
IDI1 (GeneID 3422) | -0.85 | inactive
IDI1 (GeneID 3422) | -0.72 | inactive
IDI1 (GeneID 3422) | -0.13 | inactive
IDI1 (GeneID 3422) | 0.19 | inactive
PAK6-AS1 (GeneID 644809) | 0.73 | inactive
PAK6-AS1 (GeneID 644809) | 0.02 | inactive
PAK6-AS1 (GeneID 644809) | -0.37 | inactive
PAK6-AS1 (GeneID 644809) | 0.43 | inactive
GSS (GeneID 2937) | -0.98 | inactive
GSS (GeneID 2937) | -0.04 | inactive
GSS (GeneID 2937) | 0.12 | inactive
GSS (GeneID 2937) | 0.6 | inactive
FAM120B (GeneID 84498) | 0.81 | inactive
FAM120B (GeneID 84498) | -0.28 | inactive
FAM120B (GeneID 84498) | 0.15 | inactive
FAM120B (GeneID 84498) | -0.85 | inactive
ADCYAP1R1 (GeneID 117) | -1.39 | inactive
ADCYAP1R1 (GeneID 117) | -0.9 | inactive
ADCYAP1R1 (GeneID 117) | -0.91 | inactive
ADCYAP1R1 (GeneID 117) | -0.96 | inactive
ERF (GeneID 2077) | -0.17 | inactive
ERF (GeneID 2077) | 0.74 | inactive
ERF (GeneID 2077) | 0.85 | inactive
ERF (GeneID 2077) | 0.25 | inactive
HR (GeneID 55806) | 5.95 | active
HR (GeneID 55806) | 3.48 | active
HR (GeneID 55806) | 3.95 | active
HR (GeneID 55806) | 4.69 | active
SLC27A2 (GeneID 11001) | 0.51 | inactive
SLC27A2 (GeneID 11001) | -0.22 | inactive
SLC27A2 (GeneID 11001) | 0.68 | inactive
SLC27A2 (GeneID 11001) | 1.8 | inactive
GPR37L1 (GeneID 9283) | 0.15 | inactive
GPR37L1 (GeneID 9283) | -0.06 | inactive
GPR37L1 (GeneID 9283) | -0.42 | inactive
GPR37L1 (GeneID 9283) | -0.18 | inactive
RPH3AL (GeneID 9501) | -1.06 | inactive
RPH3AL (GeneID 9501) | -0.64 | inactive
RPH3AL (GeneID 9501) | -1.24 | inactive
RPH3AL (GeneID 9501) | -0.56 | inactive
STX8 (GeneID 9482) | -1.23 | inactive
STX8 (GeneID 9482) | -1.09 | inactive
STX8 (GeneID 9482) | -0.29 | inactive
STX8 (GeneID 9482) | -0.11 | inactive
TMBIM1 (GeneID 64114) | -0.6 | inactive
TMBIM1 (GeneID 64114) | -0.78 | inactive
TMBIM1 (GeneID 64114) | -0.52 | inactive
TMBIM1 (GeneID 64114) | -1.25 | inactive
SULT1C4 (GeneID 27233) | 0.01 | inactive
SULT1C4 (GeneID 27233) | 0.41 | inactive
SULT1C4 (GeneID 27233) | -0.05 | inactive
SULT1C4 (GeneID 27233) | 0.43 | inactive
HS3ST5 (GeneID 222537) | -1.55 | active
HS3ST5 (GeneID 222537) | -0.09 | inactive
HS3ST5 (GeneID 222537) | 0.09 | inactive
HS3ST5 (GeneID 222537) | 0.11 | inactive
KRTAP20-2 (GeneID 337976) | -1.02 | inactive
KRTAP20-2 (GeneID 337976) | -0.76 | inactive
KRTAP20-2 (GeneID 337976) | -1.42 | inactive
KRTAP20-2 (GeneID 337976) | -0.39 | inactive
PARD6G (GeneID 84552) | -0.81 | inactive
PARD6G (GeneID 84552) | -0.74 | inactive
PARD6G (GeneID 84552) | -0.63 | inactive
PARD6G (GeneID 84552) | -0.86 | inactive
CDH24 (GeneID 64403) | -0.09 | inactive
CDH24 (GeneID 64403) | -0.44 | inactive
CDH24 (GeneID 64403) | -0.69 | inactive
CDH24 (GeneID 64403) | 0.08 | inactive
EDC4 (GeneID 23644) | -0.16 | inactive
EDC4 (GeneID 23644) | 0.42 | inactive
EDC4 (GeneID 23644) | 0.51 | inactive
EDC4 (GeneID 23644) | -0.38 | inactive
